Results are given in words; binding and its absence hold for the method and conditions named. Binding seen in cells or lysates may run through a third protein. Some binding calls cover weakened binding; strength is not graded here.
Biological target: CHEK2 (human (endogenous in A549)) (UniProt O96017)
Assay: co-IP; A549 cell lysates in lysis buffer with protease inhibitors; immunoprecipitation of endogenous proteins with rabbit anti-KPNA2, anti-CHEK2 or anti-FOXM1 antibody (anti-IgG as control), eluates analysed by Western blot

binding: binds
B1: FOXM1 (protein, UniProt Q08050 1-763)
chain: MKTSPRRPLILKRRRLPLPVQNAPSETSEEEPKRSPAQQESNQAEASKEVAESNSCKFPAGIKIINHPTMPNTQVVAIPNNANIHSIITALTAKGKESGSSGPNKFILISCGGAPTQPPGLRPQTQTSYDAKRTEVTLETLGPKPAARDVNLPRPPGALCEQKRETCADGEAAGCTINNSLSNIQWLRKMSSDGLGSRSIKQEMEEKENCHLEQRQVKVEEPSRPSASWQNSVSERPPYSYMAMIQFAINSTERKRMTLKDIYTWIEDHFPYFKHIAKPGWKNSIRHNLSLHDMFVRETSANGKVSFWTIHPSANRYLTLDQVFKPLDPGSPQLPEHLESQQKRPNPELRRNMTIKTELPLGARRKMKPLLPRVSSYLVPIQFPVNQSLVLQPSVKVPLPLAASLMSSELARHSKRVRIAPKVLLAEEGIAPLSSAGPGKEEKLLFGEGFSPLLPVQTIKEEEIQPGEEMPHLARPIKVESPPLEEWPSPAPSFKEESSHSWEDSSQSPTPRPKKSYSGLRSPTRCVSEMLVIQHRERRERSRSRRKQHLLPPCVDEPELLFSEGPSTSRWAAELPFPADSSDPASQLSYSQEVGGPFKTPIKETLPISSTPSKSVLPRTPESWRLTPPAKVGGLDFSPVQTSQGASDPLPDPLGLMDLSTTPLQSAPPLESPQRLLSSEPLDLISVPFGNSSPSDIDVPKPGSPEPQVSGLAANRSLTEGLVLDTMNDSLSKILLDISFPGLDEDPLGPDNINWSQFIPELQ

Reference: article PMC12829203
